This assay relates to Lewis lung carcinoma i.m., BDF1 mice, T/C %. Kind of assay: NCI In Vivo Anticancer Drug Screen. Data for tumor model Lewis Lung Carcinoma (intramuscular) in B6D2F1 (BDF1) mice. In short, it runs like this: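 Antitumour activity is assessed in transplanted-tumour mice. Endpoint is survival or tumour size, normalised to vehicle-dosed controls (T/C).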
[1] abbreviates: T/C endpoint: median survival time, dose: 200.0 mg/kg/injection, schedule: Q01DX011 (ip), vehicle: saline, higher T/C = longer survival.
[2] abbreviates: T/C endpoint: median survival time, dose: 250.0 mg/kg/injection, schedule: Q01DX011 (ip), vehicle: saline, higher T/C = longer survival.

The list shows only some results of the screen, not a fair sample: it gathers tests that were run many times, whatever their T/C, doses with no T/C, and many T/C values between a quarter and a half above the control. Other doses and runs of a compound stand elsewhere. T/C: endpoint of the treated group in % of that of the vehicle group. Some doses have a count of surviving animals in place of a T/C: the source holds a T/C of zero for them, seemingly a mark for toxic or unscored doses. Some survivor counts are full or nearly so, which does not show that the dose was tolerated: survival well below the control is almost never listed, so the zero probably covers shortened survival too. Counts of survivors are from the toxicity check (mostly the fifth day) where no day follows; animals may have died later. Schedules are NCI's codes, taken here to give the interval after Q, in days (D) or hours (H), and the number of doses after X. Some entries hold several experiments; their values stand side by side, smallest first. For survival time, the PubChem record calls one and a half times the control and up active, and a quarter to a half above the control has no call in these data; cut-offs in other NCI protocols can differ. Some T/C values are followed by the survivors on the day toxicity was checked, most often the fifth; where none is given, no animal had died by that day. Residues, ends and D or L forms follow the SMILES beside them. *: point of attachment. Trt = c1ccc(C(c2ccccc2)(c2ccccc2)*)cc1; Cbz = O=C(OCc1ccccc1)*; Bn = c1ccc(C*)cc1; βAla = NCCC(=O)O

On to `O=S(=O)(O)SCCNCCCCCC1CCCCC1`, for which the survivor count by setting is: (T/C endpoint: mean tumor weight (est.), dose: 12.0 mg/kg/injection, schedule: Q01DX011 (ip), vehicle: saline, higher T/C = larger tumour) 5 of 8; (T/C endpoint: median survival time, dose: 12.0 mg/kg/injection, schedule: Q01DX011 (ip), vehicle: saline, higher T/C = longer survival) 5 of 8.
With `CC(=O)Nc1cc(F)c([N+](=O)[O-])cc1[N+](=O)[O-]`, where the note is “T/C endpoint: median survival time, dose: 0.63 mg/kg/injection, schedule: Q01DX011 (ip), vehicle: saline with Tween-80, higher T/C = longer survival”, the T/C is 128 % of control.
Consider `CN1CCN(c2ccc([N+](=O)[O-])c3no[n+]([O-])c23)CC1`, for which the survivor count (T/C endpoint: median survival time, dose: 5.0 mg/kg/injection, schedule: Q02DX011 (ip), vehicle: saline with Tween-80, higher T/C = longer survival) was 19 of 19.
With `CCCCOc1ccc(NC(N)=Nc2ccc(Cl)cc2)cc1`, the survivor count (T/C endpoint: median survival time, dose: 50.0 mg/kg/injection, schedule: Q01DX011 (ip), vehicle: saline with Tween-80, higher T/C = longer survival) is listed as 0 of 8.
In the case of `CCc1ccc(/C=C/c2ccc(O)c3ncccc23)[n+](C)c1`, the survivor count is 7 of 8 (T/C endpoint: median survival time, dose: 16.0 mg/kg/injection, schedule: Q01DX011 (ip), vehicle: saline, higher T/C = longer survival) and 0 of 8 (T/C endpoint: median survival time, dose: 32.0 mg/kg/injection, schedule: Q01DX011 (ip), vehicle: saline, higher T/C = longer survival).
On to `C1CN1c1nc(N2CC2)nc(N2CC2)n1`, for which the T/C by setting is: (T/C endpoint: median survival time, dose: 0.1 mg/kg/injection, schedule: Q01DX011 (ip), vehicle: saline, higher T/C = longer survival) 128 % of control; (T/C endpoint: median survival time, dose: 0.2 mg/kg/injection, schedule: Q01DX011 (ip), vehicle: saline, higher T/C = longer survival) 126 % of control; (T/C endpoint: median survival time, dose: 0.25 mg/kg/injection, schedule: Q01DX011 (ip), vehicle: saline, higher T/C = longer survival) 137 % of control. The survivor count (T/C endpoint: median survival time, dose: 0.4 mg/kg/injection, schedule: Q01DX011 (ip), vehicle: saline, higher T/C = longer survival) was 7 of 10; the survivor count (T/C endpoint: median survival time, dose: 0.5 mg/kg/injection, schedule: Q01DX011 (ip), vehicle: saline, higher T/C = longer survival) was 0 of 8; the survivor count (T/C endpoint: median survival time, dose: 0.8 mg/kg/injection, schedule: Q01DX011 (ip), vehicle: saline, higher T/C = longer survival) is 1 of 10 and 8 of 10; the survivor count (T/C endpoint: median survival time, dose: 1.0 mg/kg/injection, schedule: Q01DX011 (ip), vehicle: saline, higher T/C = longer survival) is recorded as 0 of 8; the survivor count (T/C endpoint: median survival time, dose: 1.6 mg/kg/injection, schedule: Q01DX011 (ip), vehicle: saline, higher T/C = longer survival) was 0 of 10; the survivor count (T/C endpoint: median survival time, dose: 3.2 mg/kg/injection, schedule: Q01DX011 (ip), vehicle: saline, higher T/C = longer survival) is 0 of 10.
For `COc1ccc(OC)c(/C=C/c2ccnc3ccccc23)c1`, the survivor count reads like this: (T/C endpoint: mean tumor weight (est.), dose: 200.0 mg/kg/injection, schedule: Q01DX011 (ip), vehicle: saline with Tween-80, higher T/C = larger tumour) 5 of 8; (T/C endpoint: median survival time, dose: 200.0 mg/kg/injection, schedule: Q01DX011 (ip), vehicle: saline with Tween-80, higher T/C = longer survival) 5 of 8. Also, the T/C (T/C endpoint: median survival time, dose: 400.0 mg/kg/injection, schedule: Q01DX011 (ip), vehicle: saline with Tween-80, higher T/C = longer survival) was 125 % of control.
`CC/C(=C(/CC)c1ccc(O)cc1)c1ccc(O)cc1`: the survivor count (T/C endpoint: mean tumor weight, dose: 200.0 mg/kg/injection, schedule: Q01DX011 (ip), vehicle: steroid suspending solution, higher T/C = larger tumour) is given as 5 of 8; the survivor count (T/C endpoint: median survival time, dose: 50.0 mg/kg/injection, schedule: Q01DX011 (ip), vehicle: water, higher T/C = longer survival) was 10 of 10; the survivor count (T/C endpoint: median survival time, dose: 100.0 mg/kg/injection, schedule: Q01DX011 (ip), vehicle: steroid suspending solution, higher T/C = longer survival) is reported as 6 of 8; the survivor count (T/C endpoint: median survival time, dose: 200.0 mg/kg/injection, schedule: Q01DX011 (ip), vehicle: steroid suspending solution, higher T/C = longer survival) is 0 of 8 and 5 of 8; the survivor count (T/C endpoint: median survival time, dose: 200.0 mg/kg/injection, schedule: Q01DX011 (ip), vehicle: water, higher T/C = longer survival) is 3 of 10 and 6 of 10; the survivor count (T/C endpoint: median survival time, dose: 400.0 mg/kg/injection, schedule: Q01DX011 (ip), vehicle: steroid suspending solution, higher T/C = longer survival) is 0 of 8. Besides, the survivor count reads like this: (T/C endpoint: median survival time, dose: 400.0 mg/kg/injection, schedule: Q01DX011 (ip), vehicle: water, higher T/C = longer survival) 0 of 10; (T/C endpoint: median survival time, dose: 800.0 mg/kg/injection, schedule: Q01DX011 (ip), vehicle: steroid suspending solution, higher T/C = longer survival) 0 of 8.
Regarding `OCC1OC(n2cnc3c(Cl)ncnc32)C(O)C1O` (stereo not drawn), the survivor count was 5 of 8 (T/C endpoint: mean tumor weight (est.), dose: 200.0 mg/kg/injection, schedule: Q01DX011 (ip), vehicle: saline, higher T/C = larger tumour); 5 of 8 (T/C endpoint: mean tumor weight (est.), dose: 800.0 mg/kg/injection, schedule: Q01DX011 (ip), vehicle: saline, higher T/C = larger tumour); 5 of 8 (T/C endpoint: mean tumor weight, dose: 50.0 mg/kg/injection, schedule: Q01DX011 (ip), vehicle: Klucel (hydroxypropylcellulose) (HPC), higher T/C = larger tumour); 5 of 8 (T/C endpoint: mean tumor weight, dose: 100.0 mg/kg/injection, schedule: Q01DX011 (ip), vehicle: Klucel (hydroxypropylcellulose) (HPC), higher T/C = larger tumour); 5 of 8 (T/C endpoint: mean tumor weight, dose: 400.0 mg/kg/injection, schedule: Q01DX011 (ip), vehicle: Klucel (hydroxypropylcellulose) (HPC), higher T/C = larger tumour); 5 of 8 (T/C endpoint: mean tumor weight, dose: 800.0 mg/kg/injection, schedule: Q01DX011 (ip), vehicle: Klucel (hydroxypropylcellulose) (HPC), higher T/C = larger tumour). Also, the survivor count was 7 of 8 (T/C endpoint: median survival time, dose: 50.0 mg/kg/injection, schedule: Q01DX011 (ip), vehicle: saline, higher T/C = longer survival); 5 of 8 (T/C endpoint: median survival time, dose: 50.0 mg/kg/injection, schedule: Q01DX012 (ip), vehicle: Klucel (hydroxypropylcellulose) (HPC), higher T/C = longer survival); 5 of 8 (T/C endpoint: median survival time, dose: 100.0 mg/kg/injection, schedule: Q01DX012 (ip), vehicle: Klucel (hydroxypropylcellulose) (HPC), higher T/C = longer survival); 5 of 8 under setting [1]; 5 of 8 (T/C endpoint: median survival time, dose: 400.0 mg/kg/injection, schedule: Q01DX012 (ip), vehicle: Klucel (hydroxypropylcellulose) (HPC), higher T/C = longer survival); 5 of 8 (T/C endpoint: median survival time, dose: 800.0 mg/kg/injection, schedule: Q01DX011 (ip), vehicle: saline, higher T/C = longer survival). Moreover, the survivor count (T/C endpoint: median survival time, dose: 800.0 mg/kg/injection, schedule: Q01DX012 (ip), vehicle: Klucel (hydroxypropylcellulose) (HPC), higher T/C = longer survival) is 5 of 8.
Take `Cc1cc[n+](CCc2ccccc2)cc1`: the survivor count is 0 of 8 (T/C endpoint: median survival time, dose: 100.0 mg/kg/injection, schedule: Q01DX011 (ip), vehicle: saline, higher T/C = longer survival) and 0 of 8 under setting [1].
In the case of `C=CCNC(=O)NCC=C`, the survivor count was 5 of 8 (T/C endpoint: mean tumor weight, dose: 3.12 mg/kg/injection, schedule: Q01DX011 (ip), vehicle: saline with Tween-80, higher T/C = larger tumour) and 5 of 8 (T/C endpoint: median survival time, dose: 3.12 mg/kg/injection, schedule: Q01DX011 (ip), vehicle: saline with Tween-80, higher T/C = longer survival).
Consider `O=C1CN=C(c2ccc[nH]2)c2cc(Cl)ccc2N1`, for which the survivor count by setting is: (T/C endpoint: median survival time, dose: 50.0 mg/kg/injection, schedule: Q01DX011 (ip), vehicle: Klucel (hydroxypropylcellulose) (HPC), higher T/C = longer survival) 8 of 8; (T/C endpoint: median survival time, dose: 100.0 mg/kg/injection, schedule: Q01DX011 (ip), vehicle: Klucel (hydroxypropylcellulose) (HPC), higher T/C = longer survival) 5 of 8; (T/C endpoint: median survival time, dose: 200.0 mg/kg/injection, schedule: Q01DX011 (ip), vehicle: Klucel (hydroxypropylcellulose) (HPC), higher T/C = longer survival) 6 of 8; (T/C endpoint: median survival time, dose: 400.0 mg/kg/injection, schedule: Q01DX011 (ip), vehicle: Klucel (hydroxypropylcellulose) (HPC), higher T/C = longer survival) 3 of 8; (T/C endpoint: median survival time, dose: 800.0 mg/kg/injection, schedule: Q01DX011 (ip), vehicle: Klucel (hydroxypropylcellulose) (HPC), higher T/C = longer survival) 0 of 6.
For the molecule `CN(C)C(=S)S`, the survivor count by setting is: (T/C endpoint: mean tumor weight, dose: 250.0 mg/kg/injection, schedule: Q01DX011 (ip), vehicle: saline, higher T/C = larger tumour) 4 of 8; (T/C endpoint: mean tumor weight, dose: 500.0 mg/kg/injection, schedule: Q01DX011 (ip), vehicle: saline, higher T/C = larger tumour) 3 of 8; (T/C endpoint: median survival time, dose: 125.0 mg/kg/injection, schedule: Q01DX011 (ip), vehicle: saline, higher T/C = longer survival) 6 of 8; under setting [2], 4 of 8; (T/C endpoint: median survival time, dose: 500.0 mg/kg/injection, schedule: Q01DX011 (ip), vehicle: saline, higher T/C = longer survival) 0 of 8 and 3 of 8. The T/C under setting [2] is 136 % of control [7 of 8 alive].
`NC(C=O)C(O)C(O)C(O)CO` (stereo not drawn): the T/C (T/C endpoint: median survival time, dose: 750.0 mg/kg/injection, schedule: Q01DX011 (ip), vehicle: saline, higher T/C = longer survival) was 129 % of control [7 of 8 alive].
Take `COC(=O)C(CSC(c1ccccc1)(c1ccccc1)c1ccccc1)NC(=O)C(CSCc1ccccc1)NC(=O)CCNC(=O)OCc1ccccc1` (stereo not drawn) ({Cbz-βAla}-Cys(Bn)-Cys(Trt)-OMe; configuration not given here): the T/C was 142 % of control (T/C endpoint: median survival time, dose: 8.0 mg/kg/injection, schedule: Q01DX009 (ip), vehicle: Klucel (hydroxypropylcellulose) (HPC), higher T/C = longer survival) and 132 % of control (T/C endpoint: median survival time, dose: 16.0 mg/kg/injection, schedule: Q01DX009 (ip), vehicle: Klucel (hydroxypropylcellulose) (HPC), higher T/C = longer survival).
